The source of these data is PubChem BioAssay AID1347423 (Functional Genomics Laboratory (NCATS/FGL), 2020).

The campaign covered roughly 52,000 sequences. About 210 (0.4%) were called active.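 The calls were made as follows: active = gene whose silencing raises cell survival under the drug, median off-target-corrected z-score across its silencing RNAs 2 or more; inactive = the rest.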 The list shows a part of the results.

The assay in a line: Resistance to Poly (ADP-Ribose) Polymerase inhibitor: Gene Identification via Genome-wide siRNA Screen. The conditions noted are these: mouse BRCA2 R2336H ES cells, olaparib, CellTiter-Glo viability; hits give high values. The method, boiled down: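 Mouse BRCA2 R2336H ES cells were reverse-transfected with siRNA (20 nM final), treated at 48 h with 500 nM olaparib, and read by CellTiter-Glo after 72 h. Scores: MAD-based z per siRNA, median per gene, seed off-target correction.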
Take GCAGAUCACUGGAGUAAACTT against Spz1: the z-score was inactive: -1.51.

For the sequence GGCCUUUUAUCAACGCAGUTT against Npc1l1, the z-score is inactive: 0.539.

In the case of GGGUUAGAUUUAGUCAAUGTT against Gsg2, the z-score was inactive: -0.0664.

Consider UUUGCCGGGUUCCCAAAAGTT against C77604, for which the z-score is inactive: 0.0427.

Consider GCAUCUCGCCACAUCUUGATT against Prm1, for which the z-score is inactive: 0.588.

GCAGUUGUCACUGGCAAGUTT against Aqp2: the z-score was inactive: -2.89.

As for GCUUGGAGGAUACAUUCACTT against Gjb2, the z-score was inactive: 0.505.

Take CGUUUUUCUCUAACUUACATT against AI194318: the z-score was inactive: 0.632.

Turning to GGUUUCAGAUGAGAAUGUATT against Mybpc3, the z-score is inactive: -1.14.

GCAGCACGUUGAAAUGAGUTT against Dpp4: the z-score is inactive: -0.414.

As to “GGAAGUGGAAAUGAGGACATT against 2700008N14Rik”, the z-score was inactive: -1.32.

In the case of “GCUACCUGUGCAAGUGAACTT against 2700094K13Rik”, the z-score is inactive: -0.639.

As to GGUCAUAAGAAGCUCAAGATT against Serpinb9d, the z-score was inactive: -0.0731.

On to GGUGGUUGUUGAAUAUAAUTT against Habp4, for which the z-score is inactive: 0.752.

CCUUUGUACAAUGUAUAGATT against BC008163: the z-score was inactive: 1.09.

Consider CCGAAGGUGUUCAAAAUUCTT against Mbl2, for which the z-score was inactive: 0.528.

Turning to GGCCUUCCUUGACCAAUCUTT against Ren1, the z-score is inactive: 0.878.

Regarding GGAUAUGGUUGGUCAAAAUTT against Cdh7, the z-score is inactive: 1.38.

As for GGAACAGACACAGACACAGTT against Phxr5, the z-score was inactive: -0.182.

As for GGCACACCACUACACCAUCTT against Syk, the z-score was inactive: -0.907.

For CCUCUUCGCAUCAACACUGTT against Car10, the z-score was inactive: -0.758.

Turning to CCAAUAAGGCAUAUGUUUUTT against Scarb2, the z-score is inactive: -0.36.

Regarding GCUCAAAACUCAAACUAGUTT against AI894139, the z-score was inactive: 0.383.

Turning to GCCUGUUGGGUGUUCUUCCTT against Olfr834, the z-score is inactive: 0.333.

Take CCAAGGUUCCAAAACUGAUTT against Pglyrp4: the z-score is inactive: -0.643.

On to GGGACAACAUGGAUUCAAGTT against Sult1c2, for which the z-score is inactive: 2.64.

Take CCUAGUCAAGGAUAGGUAUTT against LOC446210: the z-score is inactive: 0.496.

Turning to GGAACUUACAUGAAUUCCATT against Slco1a4, the z-score is inactive: 0.847.

On to GGAGAGAUGUUUAUGAAUATT against Slc6a14, for which the z-score is inactive: 0.355.

For the sequence GGGAGAUUGCAUUUGGAGCTT against Olfr678, the z-score was inactive: -0.588.

Turning to “CCUCACAAUAUCUUUAGAATT against 4922501C03Rik”, the z-score is inactive: -0.0289.

In the case of “GCAUUUUUCGUUAGGAAAATT against 2410004I17Rik”, the z-score is inactive: -1.6.

Consider GGAGAUGGUGGAAUUCUCUTT against Atp5a1, for which the z-score was inactive: -0.677.

Regarding GCAAUGACAGAACAUACAGTT against Cts7, the z-score is inactive: 0.321.

Regarding GGAAGUUCGUUAUUAGGAUTT against Disp2, the z-score is inactive: 0.282.

With “GGAAGCUACCUGGAAGACATT against 2310005N01Rik”, the z-score was inactive: -1.26.

Regarding GGAGCAGCUUCUGCUUUCUTT against Senp1, the z-score is inactive: 1.44.

Consider CCAGAAGAGUACUGUUUUATT against Tpm4, for which the z-score is inactive: -0.0232.

Take GGACUUAGGAGCCAAAAUUTT against Afg3l1: the z-score was inactive: -2.93.

In the case of GGGAGGAAGUGGAAGUUCUTT against Tgfb1i4, the z-score was inactive: -1.19.

Regarding GCAUCAUGAGUCCCAUUCUTT against Olfr385, the z-score is inactive: -1.95.

On to GCAAAGGUUUAAGUUAUGATT against BC016226, for which the z-score was inactive: -0.296.

As to GGUACCUUGCUUUUAUUUUTT against Rdh13, the z-score is inactive: 0.337.

For GGAAAUUGUUAAGCAGUGUTT against Zc3hav1, the z-score is inactive: -0.47.

Regarding GGAGUUAAAUUUAGAGAACTT against Shoc2, the z-score is inactive: -0.0891.

Regarding CCCACGCUUAGCAAUAUCATT against Asna1, the z-score was inactive: -0.53.

As to GGCAUACUCAUGGAAUAACTT against Selp, the z-score was inactive: 0.427.

As to “GGGAGAGUUCCAUAAAUUGTT against 4430402O11Rik”, the z-score was inactive: 0.38.

As for GGUAGAAGAGAGUAUCAACTT against Commd1, the z-score is inactive: 0.975.

GGCUAUGCUGCCUACUACUTT against Bmp7: the z-score is inactive: -2.73.

For the sequence GGUUGGAAAUGACUAAUAATT against Slco6c1, the z-score was inactive: -0.439.

Take “GGACAUCUUAAGAUCUUUGTT against 4930578C19Rik”: the z-score was inactive: -0.46.

With “CGGAACCAUAGGGAAUCAGTT against 2310061C15Rik”, the z-score was inactive: -0.447.

Turning to “GGUUACAAUCUGAAGUGACTT against 4931429L15Rik”, the z-score is inactive: -1.39.

As for GGCACUUUCCCUAUAUUGUTT against Emid2, the z-score is inactive: -0.115.

Regarding GCAAGUUGAGAACAUCAAGTT against Diap1, the z-score is inactive: 0.384.

As to GGACUGGUAUUCAAAGAGGTT against Krt1-9, the z-score is inactive: 0.221.

With “GGAACAGGAAGAAUUCCUATT against 2310036D22Rik”, the z-score is inactive: 0.172.

As to GGAUGAAGAACUGACUCCGTT against Oact2, the z-score is inactive: 0.539.

GCUGCUGGCAACAAAUAUGTT against Tubb2: the z-score is inactive: -1.2.

Consider GGCUUUAGGAAGAUCCUUGTT against Ilf2, for which the z-score was inactive: 1.81.

CCAAUAAAAGUGCACACCUTT against Actb: the z-score is inactive: 1.6.

On to GGCUGCUUAUAAAAUUUUCTT against Mipep, for which the z-score was inactive: -0.599.

As for GGAGAUCCUAGUGAAUGUGTT against Kcng4, the z-score was inactive: -2.4.

In the case of GGUGAUGUCUCGGUACCCATT against Mvk, the z-score was inactive: -0.664.

With GGCAGCUUAGCUGUUCGUCTT against Socs4, the z-score is inactive: 0.356.

For GCAACCUCCUUCAAACUUGTT against Ebf2, the z-score is inactive: 0.827.
